Laboratory results published in article PMC13081163, “Discovery of a novel Nrf2 activator that modulates mitochondrial function in neurons by regulating DHRS3-Nrf2 interaction after ischemic stroke” (Theranostics, 2026).
These are yes or no findings as the source states them, for the method shown. For some assays here: Binding seen in cells or lysates may run through a third protein. Some results given as binding are weak or reduced against the parent protein; the word gives no strength. For some assays here: Sequences can lack the tags named with a protein.

T1: Nuclear factor erythroid 2-related factor 2 (Nrf2), endogenous in SH-SY5Y cells (human (endogenous in SH-SY5Y)) (UniProt Q16236)
T1 sequence: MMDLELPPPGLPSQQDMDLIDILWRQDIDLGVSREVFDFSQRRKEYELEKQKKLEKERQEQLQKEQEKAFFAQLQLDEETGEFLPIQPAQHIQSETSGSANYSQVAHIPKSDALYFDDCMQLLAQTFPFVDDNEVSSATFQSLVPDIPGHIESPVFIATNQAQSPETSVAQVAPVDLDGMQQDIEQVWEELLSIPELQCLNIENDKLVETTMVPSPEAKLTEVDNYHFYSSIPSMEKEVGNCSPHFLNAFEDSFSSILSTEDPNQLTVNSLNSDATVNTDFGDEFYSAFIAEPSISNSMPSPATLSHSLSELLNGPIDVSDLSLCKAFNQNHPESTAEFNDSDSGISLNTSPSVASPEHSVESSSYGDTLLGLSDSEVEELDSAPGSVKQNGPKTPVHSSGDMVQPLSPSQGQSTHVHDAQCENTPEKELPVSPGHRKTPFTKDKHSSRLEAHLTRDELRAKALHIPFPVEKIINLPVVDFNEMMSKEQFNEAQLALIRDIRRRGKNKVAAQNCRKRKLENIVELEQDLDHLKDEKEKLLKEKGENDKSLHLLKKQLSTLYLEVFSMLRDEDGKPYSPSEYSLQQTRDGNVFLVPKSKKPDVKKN

T2: GST-Nrf2 (YB710012, Ybio) (human) (UniProt Q16236)
T2 sequence: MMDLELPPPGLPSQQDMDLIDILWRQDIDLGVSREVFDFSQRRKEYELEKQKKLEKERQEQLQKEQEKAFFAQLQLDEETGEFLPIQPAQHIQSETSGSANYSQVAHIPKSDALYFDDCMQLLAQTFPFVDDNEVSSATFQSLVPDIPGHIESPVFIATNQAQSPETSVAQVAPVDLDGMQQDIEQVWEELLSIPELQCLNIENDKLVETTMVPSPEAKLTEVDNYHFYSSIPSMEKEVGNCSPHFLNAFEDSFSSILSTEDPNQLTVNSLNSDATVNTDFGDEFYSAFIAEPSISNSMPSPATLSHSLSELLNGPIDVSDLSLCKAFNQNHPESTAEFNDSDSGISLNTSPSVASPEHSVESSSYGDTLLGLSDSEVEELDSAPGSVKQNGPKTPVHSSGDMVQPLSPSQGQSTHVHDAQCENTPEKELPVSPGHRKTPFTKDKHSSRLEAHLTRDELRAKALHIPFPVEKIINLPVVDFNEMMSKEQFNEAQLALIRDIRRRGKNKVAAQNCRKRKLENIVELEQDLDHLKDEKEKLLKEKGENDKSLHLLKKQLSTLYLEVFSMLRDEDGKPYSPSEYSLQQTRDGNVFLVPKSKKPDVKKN


Columns and labels:
[1] = target: T1, Nuclear factor erythroid 2-related factor 2 (Nrf2), endogenous in SH-SY5Y cells (human (endogenous in SH-SY5Y)); test: co-IP; endogenous proteins in SH-SY5Y whole cell lysate; antibody 12 h at 4 °C, protein A/G magnetic beads, western blotting; cells under physiological or OGD/R conditions, treated with Cpd.51 (100 nM) or vehicle (DMSO)
[2] = target: T2, GST-Nrf2 (YB710012, Ybio) (human); test: pull-down; GST pull-down with GST-Nrf2 and truncated forms of DHRS3 (1-215, 1-190, 1-100 aa) beside the full-length protein; same method as the GST-Nrf2/DHRS3 pull-down
[3] = target: T2, GST-Nrf2 (YB710012, Ybio) (human); test: pull-down; GST-Nrf2 (or GST as control) on GST resin 2 h at 4 °C; DHRS3 added with or without Cpd.51 (100 nM), rotated overnight at 4 °C; western blotting; both purified

Binder	binding [1]	binding [2]	binding [3]
Dehydrogenase/reductase (SDR family) member 3 (DHRS3), endogenous in SH-SY5Y cells (protein, UniProt O75911 1-302) MVWKRLGALVMFPLQMIYLVVKAAVGLVLPAKLRDLSRENVLITGGGRGIGRQLAREFAERGARKIVLWGRTEKCLKETTEEIRQMGTECHYFICDVGNREEVYQTAKAVREKVGDITILVNNAAVVHGKSLMDSDDDALLKSQHINTLGQFWTTKAFLPRMLELQNGHIVCLNSVLALSAIPGAIDYCTSKASAFAFMESLTLGLLDCPGVSATTVLPFHTSTEMFQGMRVRFPNLFPPLKPETVARRTVEAVQLNQALLLLPWTMHALVILKSILPQAALEEIHKFSGTYTCMNTFKGRT	binds	–	–
DHRS3 (YB765100, Ybio) (protein, UniProt O75911 1-302) MVWKRLGALVMFPLQMIYLVVKAAVGLVLPAKLRDLSRENVLITGGGRGIGRQLAREFAERGARKIVLWGRTEKCLKETTEEIRQMGTECHYFICDVGNREEVYQTAKAVREKVGDITILVNNAAVVHGKSLMDSDDDALLKSQHINTLGQFWTTKAFLPRMLELQNGHIVCLNSVLALSAIPGAIDYCTSKASAFAFMESLTLGLLDCPGVSATTVLPFHTSTEMFQGMRVRFPNLFPPLKPETVARRTVEAVQLNQALLLLPWTMHALVILKSILPQAALEEIHKFSGTYTCMNTFKGRT	–	binds	binds
DHRS3 fragment (1-215 aa) (domain or fragment, UniProt O75911 1-215) MVWKRLGALVMFPLQMIYLVVKAAVGLVLPAKLRDLSRENVLITGGGRGIGRQLAREFAERGARKIVLWGRTEKCLKETTEEIRQMGTECHYFICDVGNREEVYQTAKAVREKVGDITILVNNAAVVHGKSLMDSDDDALLKSQHINTLGQFWTTKAFLPRMLELQNGHIVCLNSVLALSAIPGAIDYCTSKASAFAFMESLTLGLLDCPGVSAT	–	binds	–
DHRS3 fragment (1-190 aa) (domain or fragment, UniProt O75911 1-190) MVWKRLGALVMFPLQMIYLVVKAAVGLVLPAKLRDLSRENVLITGGGRGIGRQLAREFAERGARKIVLWGRTEKCLKETTEEIRQMGTECHYFICDVGNREEVYQTAKAVREKVGDITILVNNAAVVHGKSLMDSDDDALLKSQHINTLGQFWTTKAFLPRMLELQNGHIVCLNSVLALSAIPGAIDYCT	–	binds	–
